Data published in patent publication US8715749B2, “Products containing polyphenol(s) and L-arginine” (priority 1998, dated 2014).
At least one structure is not confirmed: it was looked up by name or label, or the drawing left a doubt.

Tested on: Human umbilical vein endothelial cells (HUVEC)
Test: Nitric oxide production by HUVEC (nitrite in culture medium, Griess reaction)
Format: cell-based
Conditions: 10 μM, 48 hour incubation
Description: The culture medium used was Medium 200 (Cascade Biologics Inc.) supplemented with Low Serum Growth Supplement (Cascade Biologics Inc.) and 20% fetal calf serum (DAP).
The cocoa procyanidins evaluated were the epicatechin monomer, the dimer, the trimer, the tetramer, the pentamer, and the heptamer. The nitrite content of cocoa procyanidins were evaluated. At the maximal concentration used (100 ? g/ml), no nitrite was detected.
Human umbilical vein endothelial cells (HUVEC) were purchased at primary culture stage from Cascade Biologics Inc. (Portland). Cells were cultured in Medium supplemented with Low Serum Growth Supplement (LSGS) and 20% Fetal Calf Serum (FCS) in 75 cm^2 flasks. The cells were seeded for a week following treatment with trypsin-EDTA (2 ml/flask) at 37° C. under 5% CO2 atmosphere. […]
Nitric oxide synthase activity was assessed by measuring the nitrite concentration in the culture medium. […]
NO production was estimated by measurement of nitrite (NO2) concentration in culture supernatants according to the Griess reaction. […] The absorbance at 540 nm was determined in a Labsystems MCC/340 multiskan. Nitrite concentration was determined by using sodium nitrite as standard and analyzed using ΔSOFT 2.12 software. […]
Raw Data^1: Showing the Effect of Cocoa Procyanidins On Nitric Oxide Production by HUVEC ^1Results are expressed as μmol nitrite/10^6 cells/48 h

**Q.** CC(=O)OCC[N+](C)(C)C [Acetylcholine, acetylcholine] was tested. Which “inducing nitric oxide production by HUVEC (in words)” value did it give?
**A.** ineffective
